Measured values reported in the supplement of paper PMC10849652.
This is one part of the list.

Sequences of proteins named here, by UniProt entry; tags and fusion partners are left off. A change or cut given only in a name is not applied to a line headed by its entry.
UniProt P09131: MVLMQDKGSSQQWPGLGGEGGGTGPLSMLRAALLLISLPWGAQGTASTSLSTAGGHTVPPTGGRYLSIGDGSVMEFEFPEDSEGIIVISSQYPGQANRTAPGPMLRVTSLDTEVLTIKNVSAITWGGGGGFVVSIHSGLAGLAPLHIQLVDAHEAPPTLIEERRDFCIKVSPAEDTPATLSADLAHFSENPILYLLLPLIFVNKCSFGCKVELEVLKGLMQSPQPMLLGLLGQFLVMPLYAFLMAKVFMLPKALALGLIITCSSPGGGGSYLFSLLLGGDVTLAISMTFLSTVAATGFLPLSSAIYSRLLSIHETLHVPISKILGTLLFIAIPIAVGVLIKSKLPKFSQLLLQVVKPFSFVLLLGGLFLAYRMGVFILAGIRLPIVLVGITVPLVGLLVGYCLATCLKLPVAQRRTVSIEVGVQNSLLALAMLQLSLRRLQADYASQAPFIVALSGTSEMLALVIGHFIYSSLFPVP
UniProt Q86VZ5: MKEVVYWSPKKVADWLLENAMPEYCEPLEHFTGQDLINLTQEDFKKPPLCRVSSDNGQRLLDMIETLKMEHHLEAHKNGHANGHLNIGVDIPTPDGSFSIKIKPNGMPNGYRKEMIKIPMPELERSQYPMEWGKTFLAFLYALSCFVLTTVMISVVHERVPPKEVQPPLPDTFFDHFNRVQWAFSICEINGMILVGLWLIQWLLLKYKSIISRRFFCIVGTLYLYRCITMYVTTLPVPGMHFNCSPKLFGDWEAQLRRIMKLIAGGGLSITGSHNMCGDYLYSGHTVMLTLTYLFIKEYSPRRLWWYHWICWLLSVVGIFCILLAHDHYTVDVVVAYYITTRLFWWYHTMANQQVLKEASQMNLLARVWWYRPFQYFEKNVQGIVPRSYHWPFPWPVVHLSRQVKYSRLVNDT
UniProt P05543: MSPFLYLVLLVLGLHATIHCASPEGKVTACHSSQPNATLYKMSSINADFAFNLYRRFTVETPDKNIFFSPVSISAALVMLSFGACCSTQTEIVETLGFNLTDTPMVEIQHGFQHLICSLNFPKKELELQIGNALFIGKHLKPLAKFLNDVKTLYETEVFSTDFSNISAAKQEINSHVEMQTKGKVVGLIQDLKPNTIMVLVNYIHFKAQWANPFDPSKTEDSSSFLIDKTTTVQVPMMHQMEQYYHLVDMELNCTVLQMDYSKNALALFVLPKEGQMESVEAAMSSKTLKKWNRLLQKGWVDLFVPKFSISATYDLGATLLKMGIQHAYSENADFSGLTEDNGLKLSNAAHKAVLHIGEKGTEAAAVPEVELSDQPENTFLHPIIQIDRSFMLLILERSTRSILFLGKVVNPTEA
UniProt Q96B97, whole entry, looked up: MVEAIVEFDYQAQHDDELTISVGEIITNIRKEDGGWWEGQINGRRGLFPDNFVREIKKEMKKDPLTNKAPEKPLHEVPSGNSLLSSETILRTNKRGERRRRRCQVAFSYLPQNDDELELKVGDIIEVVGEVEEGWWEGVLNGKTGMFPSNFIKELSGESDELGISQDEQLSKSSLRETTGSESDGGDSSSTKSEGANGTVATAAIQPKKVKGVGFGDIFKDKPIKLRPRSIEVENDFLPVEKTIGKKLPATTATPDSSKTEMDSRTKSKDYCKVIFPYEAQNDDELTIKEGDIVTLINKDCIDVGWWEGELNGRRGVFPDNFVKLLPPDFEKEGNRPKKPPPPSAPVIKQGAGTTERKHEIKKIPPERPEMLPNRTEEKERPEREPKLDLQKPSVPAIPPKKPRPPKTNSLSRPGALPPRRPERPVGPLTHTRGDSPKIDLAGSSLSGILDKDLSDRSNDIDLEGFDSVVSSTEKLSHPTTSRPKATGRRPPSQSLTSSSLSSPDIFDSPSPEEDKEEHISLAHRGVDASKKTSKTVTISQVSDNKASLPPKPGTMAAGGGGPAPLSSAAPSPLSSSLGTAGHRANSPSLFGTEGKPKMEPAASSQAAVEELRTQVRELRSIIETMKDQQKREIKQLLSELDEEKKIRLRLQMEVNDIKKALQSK
UniProt Q8TD22: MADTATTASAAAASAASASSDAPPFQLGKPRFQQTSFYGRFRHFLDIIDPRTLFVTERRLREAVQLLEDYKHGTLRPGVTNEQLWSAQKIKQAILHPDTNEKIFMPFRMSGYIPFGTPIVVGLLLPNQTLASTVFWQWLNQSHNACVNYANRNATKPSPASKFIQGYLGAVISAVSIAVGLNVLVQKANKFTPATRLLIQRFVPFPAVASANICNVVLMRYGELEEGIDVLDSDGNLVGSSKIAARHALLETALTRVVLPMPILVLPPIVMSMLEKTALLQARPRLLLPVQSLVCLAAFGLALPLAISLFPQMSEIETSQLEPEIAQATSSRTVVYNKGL
UniProt Q9HAT2: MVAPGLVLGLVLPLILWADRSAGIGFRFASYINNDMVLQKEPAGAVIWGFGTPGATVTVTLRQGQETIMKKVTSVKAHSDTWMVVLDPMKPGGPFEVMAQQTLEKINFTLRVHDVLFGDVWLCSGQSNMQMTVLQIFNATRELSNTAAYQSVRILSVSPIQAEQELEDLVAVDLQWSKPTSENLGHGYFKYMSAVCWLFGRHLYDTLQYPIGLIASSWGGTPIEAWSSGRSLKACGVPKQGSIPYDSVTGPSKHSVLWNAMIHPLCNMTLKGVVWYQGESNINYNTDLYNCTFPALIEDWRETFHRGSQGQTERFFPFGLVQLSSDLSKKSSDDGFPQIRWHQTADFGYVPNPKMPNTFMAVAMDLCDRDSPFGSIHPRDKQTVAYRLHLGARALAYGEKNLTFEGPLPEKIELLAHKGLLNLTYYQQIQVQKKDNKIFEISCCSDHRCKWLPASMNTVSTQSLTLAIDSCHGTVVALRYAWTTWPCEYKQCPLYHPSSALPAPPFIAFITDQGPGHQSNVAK
UniProt Q9UIV8: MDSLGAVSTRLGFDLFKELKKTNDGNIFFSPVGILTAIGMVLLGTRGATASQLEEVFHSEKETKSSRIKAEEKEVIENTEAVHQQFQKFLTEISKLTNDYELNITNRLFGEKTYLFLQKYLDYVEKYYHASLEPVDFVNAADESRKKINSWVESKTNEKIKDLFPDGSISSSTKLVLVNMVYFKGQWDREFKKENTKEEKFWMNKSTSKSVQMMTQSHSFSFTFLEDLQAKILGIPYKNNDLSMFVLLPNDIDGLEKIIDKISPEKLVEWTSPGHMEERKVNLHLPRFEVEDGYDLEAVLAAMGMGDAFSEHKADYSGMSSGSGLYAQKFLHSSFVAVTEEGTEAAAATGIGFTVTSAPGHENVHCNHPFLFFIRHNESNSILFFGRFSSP
UniProt Q96EP9: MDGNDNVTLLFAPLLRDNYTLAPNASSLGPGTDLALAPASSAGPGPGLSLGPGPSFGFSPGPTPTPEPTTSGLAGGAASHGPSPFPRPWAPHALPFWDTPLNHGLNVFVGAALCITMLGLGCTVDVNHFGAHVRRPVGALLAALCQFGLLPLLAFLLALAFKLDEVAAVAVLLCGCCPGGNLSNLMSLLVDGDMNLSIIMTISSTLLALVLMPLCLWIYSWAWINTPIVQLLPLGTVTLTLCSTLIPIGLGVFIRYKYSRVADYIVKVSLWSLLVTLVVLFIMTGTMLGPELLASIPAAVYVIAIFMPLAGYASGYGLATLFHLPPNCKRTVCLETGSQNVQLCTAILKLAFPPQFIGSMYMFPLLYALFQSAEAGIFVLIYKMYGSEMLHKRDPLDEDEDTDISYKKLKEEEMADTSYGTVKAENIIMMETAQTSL
UniProt Q562F6: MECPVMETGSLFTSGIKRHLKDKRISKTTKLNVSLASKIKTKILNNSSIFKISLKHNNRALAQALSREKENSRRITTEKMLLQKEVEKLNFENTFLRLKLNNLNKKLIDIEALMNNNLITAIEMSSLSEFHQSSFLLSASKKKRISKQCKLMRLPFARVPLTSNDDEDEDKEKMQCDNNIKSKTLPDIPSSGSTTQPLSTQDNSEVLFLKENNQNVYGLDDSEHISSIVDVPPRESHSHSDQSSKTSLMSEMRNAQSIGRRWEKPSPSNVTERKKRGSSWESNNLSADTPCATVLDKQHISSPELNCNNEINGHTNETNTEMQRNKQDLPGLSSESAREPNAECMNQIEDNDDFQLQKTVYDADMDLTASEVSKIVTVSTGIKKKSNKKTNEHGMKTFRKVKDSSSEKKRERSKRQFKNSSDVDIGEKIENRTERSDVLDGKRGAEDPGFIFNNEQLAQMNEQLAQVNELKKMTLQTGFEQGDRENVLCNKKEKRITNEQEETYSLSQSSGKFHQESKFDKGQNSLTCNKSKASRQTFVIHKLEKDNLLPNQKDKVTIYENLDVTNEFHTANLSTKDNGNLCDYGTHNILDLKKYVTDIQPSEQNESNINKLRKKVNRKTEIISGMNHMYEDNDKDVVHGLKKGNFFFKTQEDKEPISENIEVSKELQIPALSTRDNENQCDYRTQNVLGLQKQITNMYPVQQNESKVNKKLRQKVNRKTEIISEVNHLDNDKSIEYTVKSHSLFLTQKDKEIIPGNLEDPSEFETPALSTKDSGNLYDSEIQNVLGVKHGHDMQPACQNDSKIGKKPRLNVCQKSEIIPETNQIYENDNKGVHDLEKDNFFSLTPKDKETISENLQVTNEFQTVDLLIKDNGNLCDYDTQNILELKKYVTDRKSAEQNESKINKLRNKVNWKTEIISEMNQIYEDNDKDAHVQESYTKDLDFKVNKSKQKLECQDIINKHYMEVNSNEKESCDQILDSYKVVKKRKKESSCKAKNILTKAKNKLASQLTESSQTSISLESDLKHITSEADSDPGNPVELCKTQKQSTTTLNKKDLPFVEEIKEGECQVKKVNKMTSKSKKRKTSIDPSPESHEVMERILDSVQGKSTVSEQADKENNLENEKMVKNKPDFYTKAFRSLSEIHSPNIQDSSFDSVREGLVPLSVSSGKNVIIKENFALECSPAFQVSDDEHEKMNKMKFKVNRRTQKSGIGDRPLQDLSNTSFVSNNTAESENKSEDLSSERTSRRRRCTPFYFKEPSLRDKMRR
UniProt Q8WV19: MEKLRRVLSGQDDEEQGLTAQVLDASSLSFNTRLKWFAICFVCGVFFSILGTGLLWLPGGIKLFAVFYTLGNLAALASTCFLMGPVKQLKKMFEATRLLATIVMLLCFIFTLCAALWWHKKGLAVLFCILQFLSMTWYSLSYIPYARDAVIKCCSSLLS
UniProt Q96HU1: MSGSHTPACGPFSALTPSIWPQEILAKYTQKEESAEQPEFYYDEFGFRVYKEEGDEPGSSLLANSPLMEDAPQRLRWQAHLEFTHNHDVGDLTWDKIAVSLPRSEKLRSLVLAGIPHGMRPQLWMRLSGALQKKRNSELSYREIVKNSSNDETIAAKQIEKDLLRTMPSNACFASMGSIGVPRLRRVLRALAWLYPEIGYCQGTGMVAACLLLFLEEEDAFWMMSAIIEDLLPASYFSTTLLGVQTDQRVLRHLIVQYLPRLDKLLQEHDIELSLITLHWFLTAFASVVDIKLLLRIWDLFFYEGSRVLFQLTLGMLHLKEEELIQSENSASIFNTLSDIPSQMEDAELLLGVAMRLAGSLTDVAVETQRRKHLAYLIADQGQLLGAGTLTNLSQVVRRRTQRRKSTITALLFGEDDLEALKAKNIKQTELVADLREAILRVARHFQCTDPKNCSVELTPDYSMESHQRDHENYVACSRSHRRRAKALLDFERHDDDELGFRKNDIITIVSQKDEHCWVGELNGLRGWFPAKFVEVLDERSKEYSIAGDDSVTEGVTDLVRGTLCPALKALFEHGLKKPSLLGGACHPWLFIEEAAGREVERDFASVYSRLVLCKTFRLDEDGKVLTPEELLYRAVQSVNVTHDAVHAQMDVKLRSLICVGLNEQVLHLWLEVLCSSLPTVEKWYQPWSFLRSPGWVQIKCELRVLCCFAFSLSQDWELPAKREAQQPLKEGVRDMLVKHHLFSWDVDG

Columns and labels:
Experiment in all cases: log2 fold change, soluble protein after heating vs DMSO (PISA); higher = thermal stabilisation; K562 lysate, 10 uM; active = over 0.2 and 3.5 SD of the protein, either way, in both replicates (recomputed)
vemurafenib = compound: CCCS(=O)(=O)Nc1ccc(F)c(C(=O)c2c[nH]c3ncc(-c4ccc(Cl)cc4)cc23)c1F [vemurafenib]
How it was run: (§1)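 Pellets of K562 cells were dounce-homogenised in PBS pH 7.4 with 1 mM MgCl2, and the crude extract was held at 1 mg/mL protein for a 30 min treatment with 10 μM compound. Aliquots were heated for 3 min over 48°C-58°C and pooled before NP-40 was added to 0.5% at 4°C. The supernatant from 21,000xg for 90 min was quantified by TMTpro 16plex LC-MS/MS with channel sums equalised. Values are reported from duplicates as log-two fold change in thermal stability relative to solvent controls.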

[1] = compound: CC[C@@H]1C(=O)N(C)c2cnc(Nc3ccc(C(=O)NC4CCN(C)CC4)cc3OC)nc2N1C1CCCC1
How it was run: as §1

[2] = compound: CCn1cc(-c2ccnc3[nH]c(-c4cccc(CN(C)C)c4)cc23)c(-c2ccc(NC(=O)N(C)C)cc2)n1
How it was run: as §1

[3] = compound: CN1CCC(CNc2ccc3ncc(-c4cccc(OC(F)(F)F)c4)n3n2)CC1
How it was run: as §1

[4] = compound: CCCS(=O)(=O)Nc1ccc(F)c(C(=O)c2c[nH]c3ncc(Cl)cc23)c1F
How it was run: as §1

barasertib = compound: CCN(CCCOc1ccc2c(Nc3cc(CC(=O)Nc4cccc(F)c4)[nH]n3)ncnc2c1)CCOP(=O)(O)O [barasertib]
How it was run: as §1

volasertib = compound: CC[C@@H]1C(=O)N(C)c2cnc(Nc3ccc(C(=O)N[C@H]4CC[C@H](N5CCN(CC6CC6)CC5)CC4)cc3OC)nc2N1C(C)C [volasertib]
How it was run: as §1

[5] = compound: CCn1c(C(=O)N(C2CC2)C2CC2)cc2c3c(ncn3C)c(Nc3cc(C)n(C)n3)nc21
How it was run: as §1

saracatinib = compound: CN1CCN(CCOc2cc(OC3CCOCC3)c3c(Nc4c(Cl)ccc5c4OCO5)ncnc3c2)CC1 [saracatinib]
How it was run: as §1

sotrastaurin = compound: CN1CCN(c2nc(C3=C(c4c[nH]c5ccccc45)C(=O)NC3=O)c3ccccc3n2)CC1 [sotrastaurin]
How it was run: as §1

Measured: log2 fold change

SLC10A3 (UniProt P09131)
inactive: vemurafenib 0.121 | [1] -0.099 | [2] -0.012 | [3] 0.025

SH2B1 (UniProt Q9NRF2)
inactive: [4] -0.118 | barasertib -0.007 | volasertib 0.062 | [5] -0.119 | [2] -0.144 | [3] 0.1 | saracatinib 0.049 | sotrastaurin 0.054

SGK3 (UniProt Q96BR1)
inactive: vemurafenib 0.045 | [5] 0.336 | saracatinib -0.066

SGMS1 (UniProt Q86VZ5)
inactive: vemurafenib 0.035 | [4] 0.037 | [1] -0.104 | volasertib 0.007 | [5] 0.011 | [2] -0.021 | [3] -0.006 | saracatinib 0.03 | sotrastaurin 0.033

SERPINA7 (UniProt P05543)
inactive: vemurafenib -0.125 | barasertib 0.341 | [1] -0.042 | [2] -0.078 | [3] 0.01

SH2B3 (UniProt Q9UQQ2)
inactive: vemurafenib 0.085 | [1] 0.028 | sotrastaurin 0.15

SETD1B (UniProt Q9UPS6)
inactive: vemurafenib 0.04 | barasertib -0.045 | [2] -0.275 | [3] 0.026 | saracatinib 0 | sotrastaurin 0.062

SH2D1B (UniProt O14796)
inactive: vemurafenib -0.007 | [1] 0.031 | [5] -0.125 | [2] -0.062 | [3] -0.069 | saracatinib -0.05 | sotrastaurin 0.047

SH3KBP1 (UniProt Q96B97)
inactive: [4] -0.162 | barasertib 0.345 | [1] 0.074 | volasertib -0.029 | [5] -0.111 | [2] 0.16 | [3] 0.108 | saracatinib 0.114 | sotrastaurin 0.002

SFXN5 (UniProt Q8TD22)
inactive: vemurafenib -0.007 | [4] -0.04 | [1] 0.016 | volasertib 0.165 | [5] 0.165 | saracatinib 0.061 | sotrastaurin 0.056

SERPINB5 (UniProt P36952)
inactive: [4] -0.055 | barasertib 0.128 | volasertib -0.116 | [5] 0.073 | [2] -0.124 | [3] 0.2 | saracatinib 0.025 | sotrastaurin 0.012

SERPINA12 (UniProt Q8IW75)
inactive: [4] -0.338 | barasertib -0.299 | volasertib 0.164 | [5] -0.07 | saracatinib -0.164 | sotrastaurin -0.194

SH2D3A (UniProt Q9BRG2)
inactive: barasertib 0.215 | [5] 0.16

SIAE (UniProt Q9HAT2)
inactive: barasertib 0.127 | [1] 0.024 | [5] -0.123 | [2] -0.026 | [3] -0.058 | sotrastaurin 0.064

SHMT2 (UniProt G3V2Y4)
inactive: barasertib 0.065

SLC12A6 isoform 2 (UniProt Q9UHW9)
inactive: [4] 0.009 | [1] 0.053 | volasertib -0.178 | [5] -0.021 | saracatinib 0.042 | sotrastaurin 0.057

SERPINB13 (UniProt Q9UIV8)
inactive: barasertib 0.37

SFT2D3 (UniProt Q587I9)
inactive: [4] 0.015 | [1] -0.055 | volasertib 0.021 | [5] -0.054 | [2] -0.136 | [3] 0.056 | saracatinib 0.04 | sotrastaurin -0.028

SERPINB7 (UniProt O75635)
inactive: [5] -0.206 | sotrastaurin -0.048

SIX5 (UniProt Q8N196)
inactive: [4] 0.031 | barasertib -0.026 | volasertib -0.046 | [5] 0.084 | [2] 0.538 | [3] -0.132 | saracatinib -0.093 | sotrastaurin -0.009

Quoted at random: two records from the list
SERPINA12 (UniProt Q8IW75)
inactive: [4] -0.338 | barasertib -0.299 | volasertib 0.164 | [5] -0.07 | saracatinib -0.164 | sotrastaurin -0.194

SGK3 (UniProt Q96BR1)
inactive: vemurafenib 0.045 | [5] 0.336 | saracatinib -0.066

Remaining list, next part:

SHLD1 (UniProt Q8IYI0)
inactive: [1] 0.168 | saracatinib 0.252

SHC1 (UniProt P29353)
inactive: [2] -0.2 | [3] -0.114

SLC11A1, A0A0A0MTL3
inactive: [4] -0.148 | volasertib -0.004

SET isoform 3 (UniProt Q01105)
inactive: [1] -0.28 | [2] -0.177 | [3] 0.094 | saracatinib 0.172

SLC10A4 (UniProt Q96EP9)
inactive: [4] -0.034 | volasertib -0.047 | [5] -0.392 | saracatinib 0.015

SETD6 (UniProt Q8TBK2)
inactive: [5] -0.003 | saracatinib 0.063

SESTD1 (UniProt Q86VW0)
inactive: [5] 0.219 | sotrastaurin -0.222

SGO2 (UniProt Q562F6)
inactive: barasertib 0.03 | [1] -0.056 | [5] -0.122 | sotrastaurin -0.013

SLC16A3 (UniProt O15427)
inactive: [5] -0.126

SFT2D1 (UniProt Q8WV19)
inactive: saracatinib 0.077 | sotrastaurin 0.061

SGSH (UniProt P51688)
inactive: [2] -0.206 | [3] 0.083

SERPINA1 (UniProt P01009)
inactive: [5] -0.093 | [2] -0.027 | [3] -0.18 | saracatinib 0.068

SLC12A7 (UniProt Q9Y666)
inactive: [4] -0.169 | volasertib 0.186 | [2] -0.071 | [3] -0.099

SERAC1 (UniProt Q96JX3)
inactive: barasertib 0.142 | [1] 0.1 | [2] -0.061 | [3] 0.051 | saracatinib -0.096

SHQ1 (UniProt Q6PI26)
inactive: barasertib 0.055 | [5] 0.005 | [2] 0.087 | [3] -0.179 | saracatinib 0.288 | sotrastaurin 0.005

SLAIN2 (UniProt D6RIF6)
inactive: [5] -0.26 | sotrastaurin 0.006

SF3B2 (UniProt E9PJ04)
inactive: [4] 0.114 | barasertib -0.017 | volasertib -0.083 | [2] -0.1 | [3] 0.139

SIK2 (UniProt Q9H0K1)
inactive: [1] 0.018 | [5] 0.009 | [2] -0.187 | [3] 0.106

SIK3 (UniProt Q9Y2K2)
inactive: [1] 0.251 | [5] -0.076 | [2] -0.135 | [3] 0.398 | saracatinib 0.1 | sotrastaurin 0.014

SKI (UniProt P12755)
inactive: [2] 0.124 | [3] 0.052

SHB (UniProt Q15464)
inactive: [4] -0.049 | volasertib 0.072 | [5] 0.113 | [2] -0.125 | [3] -0.162 | saracatinib 0.003 | sotrastaurin -0.003

SGSM3 isoform 2 (UniProt Q96HU1)
inactive: [4] 0.038 | volasertib -0.003 | [5] 0.027 | sotrastaurin -0.066

SIAH1 isoform 2 (UniProt Q8IUQ4)
inactive: [4] 0.022 | volasertib 0.008 | [5] -0.039 | sotrastaurin -0.051
